# Screening data, single-dose tests

Sequences of proteins named here, by UniProt entry; tags and fusion partners are left off. Residues count along the entry.
UniProt Q8IDJ8, 1-583: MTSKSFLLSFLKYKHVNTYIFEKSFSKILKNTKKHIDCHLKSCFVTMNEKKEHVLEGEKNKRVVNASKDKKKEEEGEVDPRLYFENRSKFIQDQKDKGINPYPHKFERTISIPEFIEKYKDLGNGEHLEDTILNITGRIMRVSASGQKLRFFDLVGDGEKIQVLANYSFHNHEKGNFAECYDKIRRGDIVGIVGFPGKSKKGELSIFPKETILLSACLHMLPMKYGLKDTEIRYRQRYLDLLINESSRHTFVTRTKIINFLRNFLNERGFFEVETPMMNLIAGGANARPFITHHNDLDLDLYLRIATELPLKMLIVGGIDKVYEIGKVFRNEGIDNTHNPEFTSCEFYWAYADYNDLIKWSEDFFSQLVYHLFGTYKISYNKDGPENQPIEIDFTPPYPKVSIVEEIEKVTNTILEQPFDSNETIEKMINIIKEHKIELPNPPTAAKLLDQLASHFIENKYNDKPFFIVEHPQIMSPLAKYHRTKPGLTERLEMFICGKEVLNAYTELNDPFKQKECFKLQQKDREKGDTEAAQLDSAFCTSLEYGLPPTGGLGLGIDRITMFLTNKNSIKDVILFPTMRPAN
UniProt Q4DA54, 1-478: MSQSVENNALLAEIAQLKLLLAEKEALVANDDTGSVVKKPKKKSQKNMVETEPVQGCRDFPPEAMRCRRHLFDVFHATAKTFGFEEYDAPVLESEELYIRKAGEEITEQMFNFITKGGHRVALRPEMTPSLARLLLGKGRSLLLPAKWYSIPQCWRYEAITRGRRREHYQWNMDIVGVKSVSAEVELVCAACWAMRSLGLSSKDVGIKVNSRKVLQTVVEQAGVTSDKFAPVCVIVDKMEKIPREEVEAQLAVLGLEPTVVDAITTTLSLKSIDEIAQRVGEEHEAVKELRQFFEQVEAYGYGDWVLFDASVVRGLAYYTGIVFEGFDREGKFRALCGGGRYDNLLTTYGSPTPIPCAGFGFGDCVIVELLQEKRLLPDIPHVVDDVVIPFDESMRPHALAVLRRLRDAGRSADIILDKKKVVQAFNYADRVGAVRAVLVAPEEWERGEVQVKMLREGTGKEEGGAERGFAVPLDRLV
UniProt I6X8D2, whole entry: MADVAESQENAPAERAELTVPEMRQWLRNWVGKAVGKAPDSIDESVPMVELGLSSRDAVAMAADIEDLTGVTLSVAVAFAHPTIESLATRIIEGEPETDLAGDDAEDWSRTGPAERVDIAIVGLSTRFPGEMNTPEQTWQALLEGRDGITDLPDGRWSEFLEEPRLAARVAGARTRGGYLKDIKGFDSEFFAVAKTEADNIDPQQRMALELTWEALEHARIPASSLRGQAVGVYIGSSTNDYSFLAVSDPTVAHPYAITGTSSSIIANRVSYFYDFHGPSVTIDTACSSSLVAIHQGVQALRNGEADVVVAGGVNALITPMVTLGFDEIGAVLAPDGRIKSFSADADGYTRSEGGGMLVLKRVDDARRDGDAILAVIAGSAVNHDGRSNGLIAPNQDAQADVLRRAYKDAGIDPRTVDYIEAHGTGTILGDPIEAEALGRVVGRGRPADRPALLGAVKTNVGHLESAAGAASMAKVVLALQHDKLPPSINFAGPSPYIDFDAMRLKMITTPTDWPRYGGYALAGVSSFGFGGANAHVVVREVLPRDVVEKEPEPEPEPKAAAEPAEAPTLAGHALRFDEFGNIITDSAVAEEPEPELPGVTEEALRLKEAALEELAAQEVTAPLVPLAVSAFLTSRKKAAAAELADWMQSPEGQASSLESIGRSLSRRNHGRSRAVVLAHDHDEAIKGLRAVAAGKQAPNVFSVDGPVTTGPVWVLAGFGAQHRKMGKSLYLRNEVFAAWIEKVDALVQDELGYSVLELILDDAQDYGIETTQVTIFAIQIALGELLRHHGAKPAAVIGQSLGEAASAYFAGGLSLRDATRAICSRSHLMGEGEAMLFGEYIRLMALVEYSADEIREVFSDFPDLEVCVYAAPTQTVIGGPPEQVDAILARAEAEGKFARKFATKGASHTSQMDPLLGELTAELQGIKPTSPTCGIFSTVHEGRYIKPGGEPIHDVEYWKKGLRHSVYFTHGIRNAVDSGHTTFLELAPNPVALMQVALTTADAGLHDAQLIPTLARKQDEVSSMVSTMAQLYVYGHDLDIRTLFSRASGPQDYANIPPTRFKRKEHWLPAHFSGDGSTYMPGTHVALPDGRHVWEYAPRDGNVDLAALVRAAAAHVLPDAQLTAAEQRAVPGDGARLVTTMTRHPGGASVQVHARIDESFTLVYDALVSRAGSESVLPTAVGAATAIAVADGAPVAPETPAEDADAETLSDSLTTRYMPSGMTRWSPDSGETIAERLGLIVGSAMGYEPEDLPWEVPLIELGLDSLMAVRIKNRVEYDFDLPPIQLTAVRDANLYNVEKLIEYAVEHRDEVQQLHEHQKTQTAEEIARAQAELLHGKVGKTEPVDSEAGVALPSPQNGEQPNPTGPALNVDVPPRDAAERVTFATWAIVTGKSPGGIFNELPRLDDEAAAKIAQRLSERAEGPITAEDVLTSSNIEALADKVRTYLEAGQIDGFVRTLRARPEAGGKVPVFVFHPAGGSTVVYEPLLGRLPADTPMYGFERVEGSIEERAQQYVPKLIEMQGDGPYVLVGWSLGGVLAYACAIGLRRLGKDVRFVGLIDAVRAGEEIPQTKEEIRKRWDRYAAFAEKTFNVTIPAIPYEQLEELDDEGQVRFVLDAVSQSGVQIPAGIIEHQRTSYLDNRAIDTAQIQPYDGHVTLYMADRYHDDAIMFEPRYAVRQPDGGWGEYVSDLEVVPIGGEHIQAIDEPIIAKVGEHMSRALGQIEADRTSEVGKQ

Measurements from “University of Dundee, Small-Polar-MMV Screening Library” (2021), ChEMBL document CHEMBL3988442.

PfKRS1: 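Lysine-tRNA ligase, Plasmodium falciparum 3D7 (UniProt Q8IDJ8). Enzyme assay of the cytosolic lysyl-tRNA synthetase in 384-well plates, read by luminescence. Concentration: 30 µM. Higher reads as stronger inhibition, judged from the few compounds that gave an IC50. About 69,000 compounds were tested under these conditions; 0.071% (about 49) showed 50% or more at least once.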
TcHisRS: 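Histidine-tRNA ligase, Trypanosoma cruzi CL Brener (UniProt Q4DA54). Enzyme assay of histidyl-tRNA synthetase; the read-out is not stated. Tested at 30 µM. Higher reads as stronger inhibition (inferred: compounds with an IC50 in retests scored well above the rest). Size under these conditions: about 69,000 compounds, about 31 of them at 50% or above in at least one test.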
Leishmania in macrophages: 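Cell assay of Leishmania donovani living inside macrophages; the read-out is not stated. Compounds at 30 µM. Higher reads as stronger inhibition (inferred: compounds with an IC50 in retests scored well above the rest). Of about 69,000 compounds tested this way, about 1,000 (1.5%) reached 50% or more in at least one test.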
Pks13 thioesterase: 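Polyketide synthase Pks13, Mycobacterium tuberculosis (UniProt I6X8D2). Enzyme assay of the thioesterase domain of polyketide synthase 13; the read-out is not stated. Tested at 30 µM. Higher reads as stronger inhibition (inferred from which compounds were picked for retests). Of about 67,000 compounds tested this way, about 300 (0.46%) reached 50% or more in at least one test.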

Values are the deposited “Percent Effect”, in %.
The controls that fix the scale are not given in the record; negative values are as filed.
The compounds are a random part of those screened.
Two or more numbers in one place are separate tests of the same structure; such repeats can differ widely.
A dash means the value is not listed here; it may have been measured.

| Compound | PfKRS1 | TcHisRS | Leishmania in macrophages | Pks13 thioesterase |
|---|---|---|---|---|
| `O=C(COc1cccc(F)c1)N1CCCCC1c1ccn2ccnc2n1` (centres undefined) | 3.634% | 6.667% | -13.98% and -3.753% | - |
| `Cc1cccc(=O)n1CCCNc1nc(N(C)C)nc2c1CCNCC2` | 4.098% | 21.69% | 14.4% | -12.65% |
| `O=C1CC2(CCCC2)CC(=O)N1CCn1cnnc1` | 0.7843% | 0.8696% | 31.82% | -8.589% |
| `Cc1nn(C)c(C)c1-c1ccc(=O)n(C(C)C(=O)NC2CCCC2)n1` (centres undefined) | -1.865% | -1.13% | -14.37% | -0.148% |
| `CC(C)c1ncc(CN2C[C@@H](CN3CCC(CO)CC3)[C@@H](CO)C2)cn1` | 3.626% | 1.245% | 38.72% | -0.5601% |
| `Cn1nc(Cn2cccc2)c2c1CN(Cc1ccoc1)C2` | 3.986% | 1.227% | - | -13.47% |
| `COCCOCC(=O)N1C[C@@H]2CC[C@H](Oc3cccc(F)c3)[C@@H]2C1` | 1.283% | 6.716% | - | 2.048% |
| `O=C(c1cscn1)N1CCCCC1c1nc2cc(F)ccc2[nH]1` (centres undefined) | 1.69% | 3.125% | 28.33% | -0.002906% |
| `Cc1noc(CN(Cc2ccc3c(c2)OCO3)Cc2ccc(C)o2)n1` | 7.658% | 3.759% | 14.43% | 15.92% |
| `O=S(=O)(Nc1cnn(C2CCOCC2)c1)c1ccc(F)c(F)c1` | 8.084% | 4.348% | 19.6% | -24.32% |
| `COc1ccccc1CC(=O)N1C[C@H]2CC[C@@H]1CN(Cc1cscn1)C2` | 0.7576% | -6.061% | - | -28.74% |
| `Cc1ncsc1C(=O)NCCn1nc(C2CCNC2)c2cccnc21` (centres undefined) | -0.7984% | -0.5464% | - | -28.82% |
| `Cl.NC1CCN(C(=O)c2c(F)cccc2Br)CC1` | - | - | 2.162% | - |
| `CCc1ccc(C(=O)NCc2cccc(S(=O)(=O)NC)c2)o1` | 0.4556% | 2.564% | -3.171% | -18.67% |
| `Cc1nn(C)c2nc(N3CCCCC3c3ccc(F)cc3)sc12` (centres undefined) | -0.1434% | 22.62% | 66.72% | 15.98% |
| `COc1ccc(-n2ccc(C(=O)N3CCN(C)CC3C)n2)cc1` (centres undefined) | 1.843% | 3.053% | -2.607% | -0.9678% |
| `Cc1ncnc2c1CCN(S(=O)(=O)C1CC1)CC2` | 1.902% | 0.5025% | -5.216% | -10.52% |
| `CN(C)S(=O)(=O)c1ccc(F)c(NC(=O)COCC2CC2)c1` | 4.171% | 0.4926% | 5.786% | -19.58% |
| `CC(C)c1cc(C2CCCN2Cc2nc(-c3ccco3)no2)no1` (centres undefined) | 6.185% | 6.061% | -21.4% | 3.035% |
| `O=C1[C@H]2CN(Cc3cccs3)C[C@H]2CN1c1cncnc1` | -1.926% | 1.674% | - | -5.072% |
| `Cc1cccc(CN2CCn3c(COc4ncccn4)nnc3C2)n1` | 8.362% | 5.785% | 26.49% | 2.484% |
| `CCO[C@H]1CN(C)C[C@@H]1NC(=O)c1cc(C)nc2c(C)cccc12` | -0.4524% | 0.8% | 8.855% | -2.481% |
| `COCC1N(C(=O)c2ccco2)[C@H]2CC[C@]1(O)CC2` (some centres undefined) | 4.833% | 7.865% | - | 9.983% |
| `CC(C)c1cc(NC(=O)Cn2cnc3ccccc3c2=O)[nH]n1` | 4.63% | 6.878% | 34.54% | -4.343% |
| `O=C(c1ccc(F)cc1)N1C[C@H]2CCC[C@@]2(COCc2ccncc2)C1` | 0.01087% | 6.452% | - | - |
| `CCn1cncc1CNC(=O)c1ccc(C2CCCN2C(=O)COC)s1` (centres undefined) | 2.452% | 8.205% | 15.51% | -32.22% |
| `CN1CCN([C@@H]2CN(C(=O)c3cc4ccc(F)cc4[nH]3)C[C@H]2O)CC1` | 0.5741% | 4.286% | 7.311% | 5.484% |
| `CNC(=O)Nc1cc(-c2ccc(Br)cc2)nn1CCO` | 2.774% | 2.174% | 19.68% | -18% |
| `Cc1ccc(C(=O)N2CCO[C@H]3[C@H](OCC4CCOCC4)CC[C@@H]32)o1` | 8.372% | 8.8% | - | -6.474% |
| `CCOC(=O)c1cnn(-c2cc(C)ccn2)c1N` | 7.099% | -2.463% | 13.39% | -2.702% |
| `Cn1cc2c(n1)C(CNCC1CCOCC1)OCC2.O=C(O)C(F)(F)F.O=C(O)C(F)(F)F` (centres undefined) | - | - | 23.7% | - |
| `[H][C@]12CC[C@@]3(N=C(C)N(C)C3=O)[C@@]1([H])CN(C(=O)Nc1ccc(F)cc1)C2` | - | - | 0.5843% | - |
| `Cc1cc(C)c(CNC(=O)NCC2COc3ccccc3C2)c(=O)[nH]1` (centres undefined) | 8.782% | 8.333% | -0.9112% | -4.238% |
| `CCCC(=O)N1CCc2c(CNS(C)(=O)=O)cncc2C1.Cl` | - | - | 13.4% | - |
| `CC(C)CC(CCO)CNC(=O)N1CCOC2(CCCC2)C1` (centres undefined) | -3.93% | 6.863% | 1.477% | -6.987% |
| `O=C(O)C(F)(F)F.[H][C@@]12CN(Cc3c[nH]cn3)C[C@]1([H])OCCN2c1cnccn1` | - | - | 27.83% | - |
| `O=C(Nc1cc(-c2ccccc2)on1)N1CC[C@H](O)C1` | 0.7197% | -0.5128% | 25.4% | -0.2301% |
| `N#CCCN(C(=O)CN1CCCC1c1cccs1)c1ccccc1F` (centres undefined) | 0.05885% | 11.37% | 29.64% | -59.91% |
| `COc1ccc(CNC(C)Cn2cccn2)c(OC)c1OC` (centres undefined) | 1.879% | 7.471% | - | -1.594% |
| `O=C(C1CNCCN1C(=O)CCc1cccnc1)N1CCOCC1` (centres undefined) | 1.933% | 7.463% | -6.873% | -15.39% |
| `CCc1nc(CN2CCc3c(ncn3C3CC3)C2)cs1` | 0.7469% | 10.86% | 28.06% | -16.52% |
| `Cc1cc(CN2CC[C@H]3C(=O)N(c4cccnc4)CCO[C@H]3C2)no1` | 1.678% | 0% | - | 3.215% |
| `COc1ncccc1CN1CC[C@@]2(O)CCN(C(=O)C3CCC3)C[C@H]2C1` | 1.369% | 1.02% | - | -19.61% |
| `Cc1nn(Cn2ccc(C(=O)N3CCCC(C)C3)n2)c(C)c1Cl` (centres undefined) | 2.218% | 7.216% | 24.98% | -15.24% |
| `COCCN1C[C@H]2CC[C@@H]1CN(C(=O)c1ccc(Cl)cc1)C2` | 4.561% | 8.861% | - | -22.75% |

For reference, 3 entries once more:

{"compound": "N#CCCN(C(=O)CN1CCCC1c1cccs1)c1ccccc1F", "stereo": "centres undefined", "PfKRS1": 0.05885, "TcHisRS": 11.37, "Leishmania in macrophages": 29.64, "Pks13 thioesterase": -59.91}
{"compound": "CCn1cncc1CNC(=O)c1ccc(C2CCCN2C(=O)COC)s1", "stereo": "centres undefined", "PfKRS1": 2.452, "TcHisRS": 8.205, "Leishmania in macrophages": 15.51, "Pks13 thioesterase": -32.22}
{"compound": "Cn1nc(Cn2cccc2)c2c1CN(Cc1ccoc1)C2", "PfKRS1": 3.986, "TcHisRS": 1.227, "Pks13 thioesterase": -13.47}